Record: PubChem BioAssay AID1159584 (Peter MacCallum Cancer Centre, 2016)
Assay: 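Genes that CDH1-null MCF10A cells selectively depend on to survive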 (primary screen). Cells: human MCF10A breast epithelial cells, parental and CDH1-null. Reagent: siRNA against human genes. Measurement: 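Cell viability by CellTiter-Glo ATP luminescence, each line scaled to the mean of mock wells across plates, then CDH1-null over parental ratio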. Direction: CDH1-null / parental viability ratio: higher = CDH1-null cells survive relatively better than parental.
Shown is one part, drawn at random, of about 18,000 reagents. Not all columns of the deposit are shown. No sequences are given here. Not stated in the record: the amount of reagent, the time to read-out.

| target | CDH1-null / parental viability ratio |
| --- | --- |
| ANKMY1 (ankyrin repeat and MYND domain containing 1) | 0.73 |
| SCMH1 (Scm polycomb group protein homolog 1) | 1.07 |
| CCT6A (chaperonin containing TCP1 subunit 6A) | 0.96 |
| UBL7 (ubiquitin like 7) | 0.97 |
| DIS3L (DIS3 like exosome 3'-5' exoribonuclease) | 0.88 |
| KIF1C (kinesin family member 1C) | 0.83 |
| INO80D (INO80 complex subunit D) | 0.94 |
| FHIP1B (FHF complex subunit HOOK interacting protein 1B) | 0.66 |
| DZIP1 (DAZ interacting zinc finger protein 1) | 1.12 |
| ZCCHC10 (zinc finger CCHC-type containing 10) | 0.92 |
| TAS1R3 (taste 1 receptor member 3) | 1.06 |
| TK2 (thymidine kinase 2) | 1.08 |
| UGT2A3 (UDP glucuronosyltransferase family 2 member A3) | 1.19 |
| UBASH3A (ubiquitin associated and SH3 domain containing A) | 1.03 |
| HS1BP3 (HCLS1 binding protein 3) | 1.02 |
| RPL28 (ribosomal protein L28) | 1.03 |
| TTF1 (transcription termination factor 1) | 1.12 |
| APOLD1 (apolipoprotein L domain containing 1) | 0.89 |
| FOLH1 (folate hydrolase 1) | 1.21 |
| EIF3H (eukaryotic translation initiation factor 3 subunit H) | 1.25 |
| XKR4 (XK related 4) | 0.74 |
| DENND2D (DENN domain containing 2D) | 0.95 |
| STRC (stereocilin) | 0.96 |
| RAB34 (RAB34, member RAS oncogene family) | 0.94 |
| GOLGA1 (golgin A1) | 0.87 |
| NAP1L4 (nucleosome assembly protein 1 like 4) | 0.9 |
| IGF2BP1 (insulin like growth factor 2 mRNA binding protein 1) | 0.82 |

Next part, starting with the last 4 of the part before.
| target | CDH1-null / parental viability ratio |
| --- | --- |
| RAB34 (RAB34, member RAS oncogene family) | 0.94 |
| GOLGA1 (golgin A1) | 0.87 |
| NAP1L4 (nucleosome assembly protein 1 like 4) | 0.9 |
| IGF2BP1 (insulin like growth factor 2 mRNA binding protein 1) | 0.82 |
| SYTL5 (synaptotagmin like 5) | 1.02 |
| ZNF620 (zinc finger protein 620) | 1.26 |
| SMPD1 (sphingomyelin phosphodiesterase 1) | 0.96 |
| P4HTM (prolyl 4-hydroxylase, transmembrane) | 0.99 |
| SPART (spartin) | 1.13 |
| CUTA (cutA divalent cation tolerance homolog) | 1 |
| JOSD1 (Josephin domain containing 1) | 1.04 |
| NEIL1 (nei like DNA glycosylase 1) | 0.88 |
| CHIT1 (chitinase 1) | 1 |
| SMUG1 | 1.07 |
| DRP2 (dystrophin related protein 2) | 0.8 |
| RCN2 (reticulocalbin 2) | 1 |
| CCDC91 (coiled-coil domain containing 91) | 1.02 |
| RNASE12 (ribonuclease A family member 12 (inactive)) | 0.73 |
| MTMR1 (myotubularin related protein 1) | 1.23 |
| LRPAP1 (LDL receptor related protein associated protein 1) | 0.98 |
| KCMF1 (potassium channel modulatory factor 1) | 1.18 |
| CXCR4 (C-X-C motif chemokine receptor 4) | 0.66 |
| WNT8B (Wnt family member 8B) | 0.98 |
